This is an account of results in doi:10.1101/2023.04.17.537135 (bioRxiv, 2023).

Protein sequences, listed by entry. Tags and fused reporters are not part of them.
UniProt Q9SI37: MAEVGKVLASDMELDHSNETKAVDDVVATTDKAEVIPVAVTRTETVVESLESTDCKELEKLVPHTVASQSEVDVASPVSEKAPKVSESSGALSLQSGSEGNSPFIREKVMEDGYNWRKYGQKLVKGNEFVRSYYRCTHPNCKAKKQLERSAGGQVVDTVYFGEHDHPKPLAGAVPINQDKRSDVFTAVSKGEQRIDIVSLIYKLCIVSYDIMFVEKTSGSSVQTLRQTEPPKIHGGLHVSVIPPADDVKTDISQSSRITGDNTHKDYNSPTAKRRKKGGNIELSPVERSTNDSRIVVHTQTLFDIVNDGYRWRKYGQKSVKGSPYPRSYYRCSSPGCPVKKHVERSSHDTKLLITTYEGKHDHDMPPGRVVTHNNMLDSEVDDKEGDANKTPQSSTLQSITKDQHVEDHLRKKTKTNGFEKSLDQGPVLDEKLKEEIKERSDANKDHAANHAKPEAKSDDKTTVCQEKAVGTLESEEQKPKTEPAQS

In assay [1] the target is T1, AHL10 (AT-Hook Like10), full length, yeast two-hybrid bait (Arabidopsis thaliana) (UniProt O22812).
T1 sequence: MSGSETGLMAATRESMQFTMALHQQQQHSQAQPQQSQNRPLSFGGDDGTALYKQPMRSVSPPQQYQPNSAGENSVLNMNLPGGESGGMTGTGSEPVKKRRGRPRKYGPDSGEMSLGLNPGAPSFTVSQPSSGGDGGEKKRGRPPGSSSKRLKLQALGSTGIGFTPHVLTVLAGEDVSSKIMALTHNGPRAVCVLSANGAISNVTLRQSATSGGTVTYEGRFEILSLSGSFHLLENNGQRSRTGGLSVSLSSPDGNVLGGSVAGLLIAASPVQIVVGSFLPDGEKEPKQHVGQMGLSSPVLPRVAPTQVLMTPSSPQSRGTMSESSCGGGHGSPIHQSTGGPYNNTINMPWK
The assay is described as follows: two-hybrid.

For assay [2], the target named is WRKY1, rBiFC fusion (Arabidopsis thaliana) (UniProt Q9SI37). The assay is described as follows: split reporter.
The target is the same in assay [3]. As to the kind of experiment: split reporter. This is another data set of the same source.
Assay [4] has as its target T1, AHL10 (AT-Hook Like10), full length, yeast two-hybrid bait (Arabidopsis thaliana). The assay is described as follows: two-hybrid. This is another data set of the same source.

Like-named read-outs stand apart in the source and are kept apart here. These are yes or no findings as the source states them, for the method shown. For some of these results: In cells and extracts the contact can be indirect. Some entries that bind do so weakly or less than the wild type. For some of these results: Where a sequence is shown, tags or fusion partners need not be part of it.

B1: AHL10 (AT-Hook Like10), full length, yeast two-hybrid bait (protein, UniProt O22812 1-351)
chain: T1 sequence
Regarding B1, the binding entry in assay [1] was “binds”.

B2: AHL10 wild type, rBiFC fusion (protein, UniProt O22812 1-351)
chain: T1 sequence
For B2, the binding entry in assay [2] and in assay [3] was “binds” in each case.

B3: RRP6L1Δ1-562 (C-terminal 76 amino acids of RRP6L1), yeast two-hybrid prey (domain or fragment, UniProt Q0WVE8 563-637)
chain: ESYEQSTKAADALDRVSETPSKGSPSLTQKPKTCNTEVIVLDDDDDSESREDEDMRRRSEKHRRFMNMKRGFLNI
For B3, the binding result in assay [1] and in assay [4] was “binds” in each case.

B4: RRP6L1 C-terminal 192 amino acids, yeast two-hybrid prey (domain or fragment, UniProt Q0WVE8 446-637)
chain: SASSLSLEKVCVDDSKKQSSGFGVLPLKRKLESDKTVVEKNIEPKIEKTGTEASASSLSSKKVCVDDSKKQSSGFGVLLSKRKFESDNKVKEEVKVSKSKPDKVIIVVDDDDDDDDDESYEQSTKAADALDRVSETPSKGSPSLTQKPKTCNTEVIVLDDDDDSESREDEDMRRRSEKHRRFMNMKRGFLNI
Regarding B4, the binding entry in assay [1] is “binds”.

B5: RRP6L1 C-terminal 338 amino acids, yeast two-hybrid prey (domain or fragment, UniProt Q0WVE8 300-637)
chain: VYKRSYDVCMQLYEKELWTRDSYLHVYGVQTGNLNAVQLSIVAGLCEWRDRIARADDESTGYVLPNKTLFDIAKEMPIVVAQLRRLLKSKLPYLERNFDAVISVIRRSMQNAAAFEPVVQSLKDRRPETVVEMNIEPKIEKTDTGASASSLSLEKVCVDDSKKQSSGFGVLPLKRKLESDKTVVEKNIEPKIEKTGTEASASSLSSKKVCVDDSKKQSSGFGVLLSKRKFESDNKVKEEVKVSKSKPDKVIIVVDDDDDDDDDESYEQSTKAADALDRVSETPSKGSPSLTQKPKTCNTEVIVLDDDDDSESREDEDMRRRSEKHRRFMNMKRGFLNI
As for B5, the binding result in assay [1] is on record as “no binding”.
